Article PMC9679424, “The CARD8 T60 variant associates with NLRP1 and negatively regulates its activation” (Frontiers in Immunology, 2022)
No constants are given. Whether binding was seen depends on the method and setting. A result given as binding can be weak or reduced; the word gives no strength. For part of these data: Binding seen in cells or lysates may run through a third protein. For part of these data: Where a sequence is shown, tags or fusion partners need not be part of it. Blank lines part the entries; values can stand above or below the molecule they belong to.

Chains of the proteins cited; added tags and fusions are not shown.
UniProt Q9ULZ3: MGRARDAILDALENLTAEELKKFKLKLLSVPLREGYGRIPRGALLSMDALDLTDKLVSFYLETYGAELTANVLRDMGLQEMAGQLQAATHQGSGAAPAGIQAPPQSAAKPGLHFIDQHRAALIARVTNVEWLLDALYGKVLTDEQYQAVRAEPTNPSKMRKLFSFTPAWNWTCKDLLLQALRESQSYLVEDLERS

Columns and labels:
NLRP1-FLAG = molecular target: T1, NLRP1-FLAG (human, UniProt Q9C000-1 1-1473); assay: co-IP; HEK 293T cells transiently co-transfected, 28 hours; lysate (20 mM Tris-HCl pH 7.5, 100 mM KCl, 5 mM MgCl2, 0.3% NP-40) on anti-FLAG M2 agarose beads overnight at 4 °C; immunoblotting
T1 construct: NLRP1, human, UniProt Q9C000-1, full length; The host of the purified protein is told only as a mammalian expression system; also called full-length NLRP1; Flag-tagged NLRP1; source: HEK 293T, transiently transfected, in lysate; also purified using mammalian protein expression system
T1 sequence (looked up): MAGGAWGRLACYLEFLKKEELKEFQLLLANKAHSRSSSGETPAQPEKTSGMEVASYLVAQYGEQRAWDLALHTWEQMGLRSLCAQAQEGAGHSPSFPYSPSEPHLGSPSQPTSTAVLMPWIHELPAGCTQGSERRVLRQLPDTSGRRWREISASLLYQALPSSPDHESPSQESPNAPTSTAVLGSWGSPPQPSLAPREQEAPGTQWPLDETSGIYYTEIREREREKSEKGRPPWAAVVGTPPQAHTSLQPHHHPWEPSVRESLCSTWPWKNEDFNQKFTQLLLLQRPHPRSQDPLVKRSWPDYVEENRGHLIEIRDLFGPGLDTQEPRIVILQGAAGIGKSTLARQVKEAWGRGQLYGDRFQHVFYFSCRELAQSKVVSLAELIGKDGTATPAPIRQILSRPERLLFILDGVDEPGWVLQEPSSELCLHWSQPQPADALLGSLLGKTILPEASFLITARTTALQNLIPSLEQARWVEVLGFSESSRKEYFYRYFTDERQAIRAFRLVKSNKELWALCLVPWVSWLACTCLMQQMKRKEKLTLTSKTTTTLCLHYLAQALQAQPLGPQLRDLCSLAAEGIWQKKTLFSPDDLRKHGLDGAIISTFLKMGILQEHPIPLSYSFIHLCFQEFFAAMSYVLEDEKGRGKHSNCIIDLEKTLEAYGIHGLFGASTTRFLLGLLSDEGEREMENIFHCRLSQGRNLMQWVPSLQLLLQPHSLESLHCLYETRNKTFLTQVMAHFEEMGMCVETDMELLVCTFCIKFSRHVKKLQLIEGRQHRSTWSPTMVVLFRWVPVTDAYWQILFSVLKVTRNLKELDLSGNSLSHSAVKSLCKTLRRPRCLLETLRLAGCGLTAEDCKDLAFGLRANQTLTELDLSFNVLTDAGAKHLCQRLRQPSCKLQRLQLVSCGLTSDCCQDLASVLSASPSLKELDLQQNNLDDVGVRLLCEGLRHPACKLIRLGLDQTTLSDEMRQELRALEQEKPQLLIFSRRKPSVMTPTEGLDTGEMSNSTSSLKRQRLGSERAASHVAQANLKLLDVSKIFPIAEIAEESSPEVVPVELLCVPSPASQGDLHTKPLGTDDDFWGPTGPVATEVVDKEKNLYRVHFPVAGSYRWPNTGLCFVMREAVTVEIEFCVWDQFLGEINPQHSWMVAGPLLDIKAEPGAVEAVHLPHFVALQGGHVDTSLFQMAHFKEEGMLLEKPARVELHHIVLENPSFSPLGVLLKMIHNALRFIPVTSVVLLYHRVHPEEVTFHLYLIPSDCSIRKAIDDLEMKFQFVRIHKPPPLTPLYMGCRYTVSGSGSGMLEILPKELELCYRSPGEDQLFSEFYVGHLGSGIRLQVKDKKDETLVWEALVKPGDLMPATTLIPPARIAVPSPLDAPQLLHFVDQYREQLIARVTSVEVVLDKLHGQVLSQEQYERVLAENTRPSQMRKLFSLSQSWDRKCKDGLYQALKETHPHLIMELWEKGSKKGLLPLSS

[1] = molecular target: full-length ASC (pBIND, DNA-binding domain fusion) (UniProt Q9ULZ3); assay: two-hybrid; Checkmate mammalian two-hybrid in HEK 293T cells; UPA-CARD fragments in pACT (VP16 activation domain), ASC in pBIND (DNA-binding domain), pG5luc, 1:1:1; luciferase normalised to Renilla, fold of empty vector, 24 hours
[2] = molecular target: NLRP1-FLAG truncation mutant: LRR domain (human) (UniProt Q9C000); assay: co-IP; HEK 293T cells transiently co-transfected, 28 hours; lysate (20 mM Tris-HCl pH 7.5, 100 mM KCl, 5 mM MgCl2, 0.3% NP-40) on anti-FLAG M2 agarose beads overnight at 4 °C; immunoblotting

binding (NLRP1-FLAG): binds
Molecule: CARD8-T60-Strep truncation mutant: ZU5 subdomain (from UniProt Q9Y2G2-5) (domain or fragment)

binding [1]: binds
Molecule: NLRP1^UPA-CARD (pACT, VP16 activation domain fusion) (from UniProt Q9C000-1) (domain or fragment)

binding [2]: binds
B1: CARD8-T60-Strep (natural protein, human, UniProt Q9Y2G2-5 1-537, looked up)
chain: MEKKECPEKSSSSEEELPRRDSGSSRNIDASKLIRLQGSRKLLVDNSIRELQYTKTGIFFQAEACVTNDTVYRELPCVSETLCDISHFFQEDDETEAEPLLFRAVPECQLSGGDIPSVSEEQESSEGQDSGDICSEENQIVSSYASKVCFEIEEDYKNRQFLGPEGNVDVELIDKSTNRYSVWFPTAGWYLWSATGLGFLVRDEVTVTIAFGSWSQHLALDLQHHEQWLVGGPLFDVTAEPEEAVAEIHLPHFISLQAGEVDVSWFLVAHFKNEGMVLEHPARVEPFYAVLESPSFSLMGILLRIASGTRLSIPITSNTLIYYHPHPEDIKFHLYLVPSDALLTKAIDDEEDRFHGVRLQTSPPMEPLNFGSSYIVSNSANLKVMPKELKLSYRSPGEIQHFSKFYAGQMKEPIQLEITEKRHGTLVWDTEVKPVDLQLVAASAPPPFSGAAFVKENHRQLQARMGDLKGVLDDLQDNEVLTENEKELVEQEKTRQSKNEALLSMVEKKGDLALDVLFRSISERDPYLVSYLRQQNL
notes: CARD8, T60 isoform, human, UniProt Q9Y2G2-5, full length; The host of the purified protein is told only as a mammalian expression system; also called CARD8-Strep; T60 isoform of CARD8; source: HEK 293T, transiently transfected, in lysate; also purified using mammalian protein expression system
